Source: ChEMBL document CHEMBL3988442, “University of Dundee, Small-Polar-MMV Screening Library” (2021).

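Whole-cell assay for inhibitors of Mycobacterium tuberculosis growth, labelled Cornell in the record; the read-out is not stated. The concentration is filed as 10 mM, unlikely as a test dose, so the dose is not known. The record gives no direction; compounds strong in two other growth screens of this library score well above the rest, so higher reads as stronger inhibition. About 53,000 compounds were tested under these conditions; 1.7% (about 900) showed 50% or more at least once.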

Values are the deposited “Percent Effect”, in %.
The controls that fix the scale are not given in the record; negative values are as filed.
The compounds are a random part of those screened.

structure	Percent Effect
Cc1cn2nc(N3CCN(Cc4nc(C(C)C)no4)CC3)sc2n1	-32.85
CN(CC1(O)CCCN(c2ccccn2)C1)C(=O)Cc1ccsc1 (stereo not given)	11.34
[H][C@@]12CCC(=O)N(CCC3=CCCCC3)[C@]1([H])CCN(C1CCOCC1)C2	-9.176
CCCc1nc(C)cc(N2CCNC(C(=O)NC3CC3)C2)n1 (stereo not given)	13.74
CC(C)N1CCC2(CCNCC2)C1=O.Cl	13.65
CCOc1ccc(CC(=O)N(CCC(=O)OC)CC2CCCO2)cc1 (stereo not given)	0.6578
CCN1CCCC1CNCc1cc2cc(OC)c(OC)cc2[nH]c1=O (stereo not given)	-3.782
Cc1ccc(NCCCNC(=O)C2CCCN(Cc3ccco3)C2)nc1 (stereo not given)	-3.723
[H][C@]12CCCC(N(C)Cc3ccncc3)[C@@]1([H])CN(c1ncccn1)C2 (stereo not given in full)	14.36
COc1ccccc1C(C)CNC(=O)c1[nH]ncc1Br (stereo not given)	3.229
O=C(O)C(F)(F)F.O=C(O)C(F)(F)F.O=C(O)C(F)(F)F.c1c[nH]c(CN2CCC3(CC2)COCCN(CCN2CCCC2)C3)c1	42.06
CN(C)c1cc(C(=O)NCCc2n[nH]c(=O)[nH]2)ccn1	20.8
CN(CCC(F)(F)F)Cc1nc2ccccc2c(=O)[nH]1	7.133
NC(=O)CN1CCCN(C(=O)c2ccn(-c3cccc(F)c3)n2)CC1	-1.585
CCN(CC)S(=O)(=O)NCC1COc2ccccc2O1 (stereo not given)	-21.41
COc1nn(C)c2c1CCCN(C(=O)c1ccsc1)C2	-10.45
Cn1cccc1CN1CCC2(CC1)CN(c1ccccc1)C(=O)CO2.O=C(O)C(F)(F)F	29.07
COc1cccc(OCC2CCCN(C(=O)CCn3ccnc3)C2)c1 (stereo not given)	-41.86
CCc1cnc(CN(C)C2CCN(CCCS(=O)(=O)NC)C2)o1 (stereo not given)	-8.816
CCc1nnc(Nc2cccc(C3CCN(C(=O)CN(C)C)CC3)n2)s1	-37.57
CSc1nc2ncc3c(=O)n(C)ccc3n2n1	-4.564
CN(Cc1ccccc1)CC(C)(C)NC(=O)c1cnns1	4.584
O=C(c1ccc2[nH]c(=O)[nH]c2c1)N1CCC(Nc2cccnn2)CC1	-40.36
CC(=O)N1CCOCC2(C1)CN(S(C)(=O)=O)CCO2 (stereo not given)	20.37
CS(=O)(=O)N1CCCC(c2cncc(Nc3ccccn3)n2)C1 (stereo not given)	15
Cc1ccc(S(=O)(=O)NCc2cnn(C)c2)c(F)c1	6.851
[H][C@@]12COC[C@@H](CC(=O)Nc3cnccn3)[C@]1([H])CN(C1CCOCC1)C2	-8.122
COCc1nnc(-c2cccc(C(=O)N(C)CC(C)(C)C)c2)o1	16.18
O=C(c1cc2ccccc2[nH]c1=O)N1CCC2(CCCNC2)C1 (stereo not given)	-8.208
O=C(NCCC1COc2ccccc2O1)c1ccc(-c2cc[nH]n2)nc1 (stereo not given)	70.18
CC(C)c1nc(C2CCCN2Cc2ccon2)no1 (stereo not given)	-7.242
Cn1cc(N2CC3(CCN(Cc4nccs4)CC3)OCC2=O)cn1.O=C(O)C(F)(F)F	-21.88
CN1CCc2onc(CNc3ncccn3)c2C1.O=C(O)C(F)(F)F.O=C(O)C(F)(F)F	1.861
O=C(c1cnc(C2CC2)s1)N1CCCC1Cn1cccn1 (stereo not given)	11.62
Cc1ncc(CNC(=O)Cc2cccs2)c(C2CCCN2C)n1 (stereo not given)	24.31
Cc1cccc(NC(=O)CN2C(=O)CC(C)(C)c3ccccc32)n1	24.47
O=C(CN1CC(n2cccn2)C1)NCC1(c2ccccc2)CCC1	4.468
[H][C@@]12OCCN(Cc3cnn(C)c3)[C@@]1([H])CCC2Cn1cccn1 (stereo not given in full)	20.23
C=C(C)COc1cccc(CNC(CC(C)C)c2ncnn2C)c1 (stereo not given)	11.61
CN(Cc1cc(=O)c(O)co1)C1CCN(c2ccc(F)cc2)CC1	1.703
CN(C)c1ncc2c(n1)C1(CCN(Cc3ccccc3)C1)COC2.O=C(O)C(F)(F)F (stereo not given)	26.12
Cc1cc2nc(C(C)C)cc(NCCc3cccn3C)n2n1	35.74
COc1ccc(C2=CCN(C(=O)CN(C)CC(C)C#N)CC2)cc1 (stereo not given)	-11
[H][C@]12CN(Cc3scnc3C)C[C@@]1([H])OCCN(S(C)(=O)=O)C2	0.2925
Cc1ccc(-c2nnc(C3CCCN3S(=O)(=O)c3cnn(C)c3C)o2)s1 (stereo not given)	22.48
c1sc(C2CCCC2)nc1CN1CCn2c(nnc2C2CC2)C1	34.13
O=C(O)C(F)(F)F.[H][C@@]12CCCO[C@]1([H])[C@H](NC(=O)CC1CC1)CN(Cc1cnn(C)c1)C2	-7.257
COCCN1CCCC12CCCN(c1nncs1)C2 (stereo not given)	-8.58
O=C(c1cccc2c1OCO2)N1CCC(N2CCCC2)CC1	7.933
CCCS(=O)(=O)N1Cc2c(ncn2Cc2ccccc2)C[C@H]1C(=O)OC	-11.17
CCCOCC1CCN(C(=O)c2cnc(-c3cccnc3)nc2O)C1 (stereo not given)	-59.9

Some entries from above, unchanged:

- c1sc(C2CCCC2)nc1CN1CCn2c(nnc2C2CC2)C1 | 34.13%
- Cn1cc(N2CC3(CCN(Cc4nccs4)CC3)OCC2=O)cn1.O=C(O)C(F)(F)F | -21.88%
- CCN1CCCC1CNCc1cc2cc(OC)c(OC)cc2[nH]c1=O (stereo not given) | -3.782%
- Cn1cccc1CN1CCC2(CC1)CN(c1ccccc1)C(=O)CO2.O=C(O)C(F)(F)F | 29.07%